Test results published in US20240133870A1, “COMBINED TREATMENT FOR CANCER” (Yeda Research and Development Co. Ltd., priority 2021, published 2024).
At least one structure is not confirmed: it was looked up by name or label, or the drawing left a doubt.

Assays:
H1975-bearing mice = assay: In-vivo preclinical experiment, tumor volume and body weight; conditions: afatinib 20 mg/kg per os, daily
[1] = test system: pERK in G361 xenograft tumors; assay: EVOC of xenograft tumors in various tissues, pERK immunohistochemistry; type: cell-based, human; conditions: any of the models tested; vemurafenib 4 μM
Procedure: (§1) SK-MEL-5 BRAF (V600E) melanoma cells were co-cultured with the lung-derived stromal cell line WI-38 or with the bone marrow-derived stromal cell line HS-5 with or without vemurafenib (4 μM). […] Vehicle—DMSO, EGFRi—gefitinib (0.1 μM), EGFRi/HER2i—lapatinib (10 nM), METi—crizotinib (0.1 μM), FGFRi—AZD4547 (50 nM), NFkB/TNFRi—CAPE (10 μM), TGFBRi-LY2109761 (0.5 μM), gp130i—SC144 (1 nM). P-values were calculated by two-sided t-test. *** P<0.001. Error bars represent standard error. […] P-values were calculated by two-sided t-test. *** P<0.001. Error bars represent standard error. […] Human BRAF (V600E) melanoma cell lines UACC62 or G361 were used to generate xenograft tumor models in various tissues of nude mice. When tumors reached a volume of 500-700 μmm^3, they were resected, sliced, and cultured ex-vivo in the presence of different drug combinations or DMSO control. Following 4 days of drug treatment, slices were fixed, embedded in paraffin blocks, and subjected to immunohistochemistry, using anti-pERK antibody, or to immuno-fluorescence, using anti-pFGFR1 antibody. BRAFi (vemurafenib, 4 μM), FGFRi (AZD4547, 2 μM). Scale bar represents 50 μm.
(§2) For the ex-vivo experiments EVOCs from immunocompromised mice bearing human tumors were generated, as further described hereinbelow. For the in-vivo validation experiments, mice bearing subcutaneous tumors were used; and response was measured by evaluating tumor volume. In the in-vivo experiments, mice were allocated randomly to different treatment cohorts. The investigators were not blinded to the allocation. To model the TME effect on innate resistance to vemurafenib, the melanoma BRAF mutated cell lines G361 and UACC62 were lenti-virally infected with CMV-GFP-T2A-Luciferase (SBI, BLIV101PA-1). To image the cells in-vivo, mice were injected i.p with 15 μmg/ml D-luciferin (Caliper Life Science, #119222), 10 μl/g body weight. 10 μminutes following injection, mice were imaged with IVIS (PerkinElmer). […]

[2] = test system: pERK in UACC62 xenograft tumors; assay: as above; type: cell-based, human; conditions: vemurafenib 4 μM, 4 days
Procedure: as §1, §2

[3] = test system: HT-29 orthotopic xenograft colorectal tumors; assay: EVOC of orthotopic colon tumors, pERK and H&E/BrDu; type: cell-based, human; conditions: vemurafenib 4 μM, 4 days
Text: 500-700 μmm^3 tumors were resected, sliced, and cultured ex-vivo. Following 4 days of drug treatment, slices were fixed and embedded in paraffin blocks. FFPE slices were stained by H&E, and the percentage of viable cancer cells was morphologically assessed on H&E stained sections by a pathologist as the ratio between viable cancer cell area and total cancer area (viable cancer cells plus necrotic cancer cells). […] Each black dot in a given treatment condition represents a different tumor. P-values were calculated by two-sided t-test. *** P<0.001 ** P<0.01. Error bars represent standard error. […] Names of the six secreted factors with the highest rScore are shown. Factors related to TNF pathways are marked in gray. Results represent the average of at least two experiments. […] Cohort size pre-treatment: 5-6, P-values of the difference on the last day of experiment were calculated by one-sided Mann-Whitney test. * P<0.05. […] Viability percentage was calculated based on the entire field of view per treatment combination. […] FFPE slices were stained by pERK and pERK activity was assessed by a pathologist. […]
For the ex-vivo experiments EVOCs from immunocompromised mice bearing human tumors were generated, as further described hereinbelow. For the in-vivo validation experiments, mice bearing subcutaneous tumors were used; and response was measured by evaluating tumor volume. […]

Compound | in vivo effect (H1975-bearing mice) | pERK suppression [1] | pERK inhibition ([2]; skin tumors) | pERK inhibition ([2]; tumors in the liver, lung and colon) | downstream pERK signaling [3]
CN(C)C/C=C/C(=O)Nc1cc2c(Nc3ccc(F)c(Cl)c3)ncnc2cc1O[C@H]1CCOC1 [afatinib] | partial effect |  |  |  | 
CCCS(=O)(=O)Nc1ccc(F)c(C(=O)c2c[nH]c3ncc(-c4ccc(Cl)cc4)cc23)c1F [vemurafenib] |  | could not completely suppress pERK | only partial pERK inhibition | sufficient to inhibit pERK | did not inhibit downstream pERK signaling
